# Laboratory results reported in PubChem BioAssay AID493014 (National Center for Advancing Translational Sciences (NCATS), 2011).
# Some of the results follow. Further columns of the screen follow, without active or inactive calls. The list favours compounds with an active or inconclusive main result. Words in brackets tell the shape of the fitted curve; partial curves, single points and poor fits give uncertain potencies.
# Assay: qHTS Assay to Find Inhibitors of Chronic Active B-Cell Receptor Signaling
# Details: ABC-DLBCL IkBa-CBG/CBR reporter, luminescence ratio (green luciferase fused to IkBa over red control in TMD8 lymphoma cells), 4 h
# Summary of the method: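 Concentration-response series (up to 46 uM) were applied to TMD8 dual-reporter cells for 4 h at 37C with doxycycline. Green/red ratio, after filter-overlap correction, defined %Activity; red signal alone was normalised to basal cells and zero luminescence.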
# [1] = measured here: CBR red luminescence, cell number
# [2] = measured here: IkBa-CBG green luminescence
Compound,AC50 [1],AC50 [2]
CC1(c2ccc(OCC#N)cc2)C=C(c2ccc(OCC#N)cc2)n2nc(C(F)(F)F)nc2N1 (configuration not stated),"16.4 µM [falling, partial curve, poor fit]",–
COc1ccc(CNC(=O)c2cccnc2SC)cc1OC,"7.94 µM [falling, partial curve, poor fit]",–
CCc1c(C(=O)Nc2ccc(S(=O)(=O)N3CCOCC3)cc2)csc1C,"3.26 µM [rising, single point]",–
COc1ccc(NC(=S)NCc2cccs2)c(OC)c1,"29.1 µM [falling, single point]",–
N#Cc1c2n(c3c(=S)nc[nH]c13)CCCCC2,"7.08 µM [falling, partial curve]",–
CCCc1cnc(N2CCN(C(=S)NC)CC2)nc1,"2.51 µM [rising, partial curve, poor fit]",–
FC(F)(F)c1ccccc1-n1c(-c2ccco2)n[nH]c1=S,"2.51 µM [falling, partial curve, poor fit]",–
COc1ccc(-c2csc(Nc3ccc(S(=O)(=O)Nc4cc(C)on4)cc3)n2)cc1C,"35.5 µM [falling, single point]",–
Cc1c(CC(=O)O)c(=O)oc2cc3c(cc12)CCC(C)(C)O3,"10 µM [rising, partial curve, poor fit]",–
CC1(C)CC(=O)c2sc(NC(=O)c3ccco3)nc2C1,"11.6 µM [falling, partial curve, poor fit]",–
O=C(CCc1ccccn1)NC1CCCc2c1cnn2-c1ccc(F)cc1F (configuration not stated),"5.62 µM [rising, single point]",–
Cc1c(C#N)c(O)n(C)c(=O)c1N=Nc1ccc(S(N)(=O)=O)cc1,"10 µM [falling, single point]","14.1 µM [rising, partial curve, poor fit]"
Cc1ccc(O)c(-c2cc(C(=O)Nc3cccnc3)[nH]n2)c1,"11.2 µM [falling, partial curve]",–
CN(C(=O)c1coc(=O)c2ccccc12)c1ccc(Br)cc1,"5.62 µM [rising, single point]",–
CCN1CCN(C(=O)/C(C#N)=C/c2ccc(OC(F)F)cc2)CC1,"14.1 µM [falling, partial curve, poor fit]",–
Cc1ccc(NC(=O)COc2ncnc3cc([N+](=O)[O-])ccc23)cc1S(=O)(=O)N1CCOCC1,"15.8 µM [falling, single point]",–
Cc1noc(C)c1C(=O)Nc1nc(C23CC4CC(CC(C4)C2)C3)cs1,"8.2 µM [falling, partial curve, poor fit]",–
Cc1nnc(C)c2c(C)n(-c3ccc(Br)cc3)c(C)c12,"29.1 µM [rising, partial curve, poor fit]",–
Cc1ccnc(SCC(=O)O)n1,"14.1 µM [rising, single point]",–
CCn1c(=O)c(=O)[nH]c2cc(C(=O)N3CCN(c4ccccc4F)CC3)ccc21,"6.51 µM [falling, single point]","3.66 µM [rising, partial curve, poor fit]"

# Shown tab-delimited: entries from further up
Compound	AC50 [1]	AC50 [2]
COc1ccc(CNC(=O)c2cccnc2SC)cc1OC	7.94 µM [falling, partial curve, poor fit]	–
Cc1ccnc(SCC(=O)O)n1	14.1 µM [rising, single point]	–

# Following part.

Compound,AC50 [1],AC50 [2]
COc1ccc(C2C(C(=O)c3cccs3)=C(O)C(=O)N2c2nncs2)cc1 (configuration not stated),"2.51 µM [falling, partial curve, poor fit]",–
O=C1CC(c2ccc(Cl)c([N+](=O)[O-])c2)c2ccc3ccccc3c2N1 (configuration not stated),"4.61 µM [falling, full curve]",–
CCCCN(CC)CCCNC(=O)c1cn(C)c(=O)c2c1c1ccccc1n2C,"11.2 µM [rising, partial curve, poor fit]",–
CC(C)(C)OC(=O)NC(CCCCNC=O)C(=O)O (configuration not stated),"0.461 µM [rising, full curve, poor fit]",–
Cc1nn(C)c(C(=O)NNC(=S)NCc2ccco2)c1Br,"35.5 µM [falling, single point]",–
COC(=O)c1cc(Nc2cc(C)c3c(O)cccc3n2)cc(C(=O)OC)c1,"2.24 µM [falling, partial curve, poor fit]",–
COc1ccc(CCN2C(=O)CC(N3CCN(c4ccccn4)CC3)C2=O)cc1OC (configuration not stated),"4.61 µM [falling, single point]",–
CC(NCC(O)COCCC12CC3CC(CC(C3)C1)C2)c1ccccc1 (configuration not stated),"15.8 µM [falling, single point]",–
COc1ccc(-c2ccc(=O)n(CC(=O)Nc3cc(OC)ccc3OC)n2)cc1,"0.708 µM [rising, full curve, poor fit]",–
Cc1cccc(-n2ncc3c(NNC(=O)c4ccccc4Cl)ncnc32)c1,"0.2 µM [falling, full curve, poor fit]",–
O=c1[nH]c(C2CCCN(S(=O)(=O)c3ccccc3)C2)nc2c1nnn2Cc1ccccc1Br (configuration not stated),"22.4 µM [falling, single point]",–
O=C(NNS(=O)(=O)c1ccc(F)cc1F)C1Cc2c(ccc3ccccc23)O1 (configuration not stated),"0.355 µM [falling, full curve, poor fit]",–
CN1/C(=C/C(=O)c2ccc(Cl)cc2)Sc2cc3c(cc21)OCO3,"0.0259 µM [rising, full curve, poor fit]",–
COc1ccc(NC(=O)Nc2c(C)n(C)n(-c3ccccc3)c2=O)cc1,–,"6.51 µM [rising, partial curve, poor fit]"
CCOC(=O)C(C)n1nc(/C=C/c2ccccc2)ccc1=O (configuration not stated),"11.2 µM [rising, partial curve, poor fit]",–
CCN(CC)CCNC(=O)c1cc2c(=O)n(C)c3ccccc3c2s1,"7.94 µM [falling, partial curve]",–
COc1ccc(C(=O)NC(=S)N2CCCCC2c2cccnc2)cc1OC (configuration not stated),"31.6 µM [rising, single point]",–
COc1ccc(/C=N/NC2=NCCCCC2)cc1,"0.13 µM [falling, full curve, poor fit]",–
Cc1nc(C(=O)Nc2ccccc2Cl)cc2c1[nH]c1ccccc12,"0.0891 µM [falling, full curve, poor fit]",–
Cc1cc(C)n(CCCNC(=O)c2cc(COc3ccc(C)c(C)c3)on2)n1,"12.6 µM [falling, partial curve, poor fit]",–
